# Assay results reported in the supplement of paper PMC8728848.
# Some of the results follow.
# Legend:
# Experiment in all cases: glycan array binding signal (z-score within array); higher = stronger binding
# Details in all cases: glycan notation: IUPAC condensed, linker removed
# [1] = biological target: Gal(b1-4)GlcNAc(b1-3)GalNAc
# In short: (§1)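 The binding signal is a Z-score computed within each array and averaged over linkers. Arrays of the same protein sequence at different concentrations or buffers were also averaged together. Data originate from 3228 arrays in the Consortium for Functional Glycomics database, kept only where the protein sequence was available.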
# [2] = biological target: Gal(b1-4)GlcNAc(b1-3)[Fuc(a1-3)GlcNAc(b1-6)]Gal(b1-4)Glc
# In short: as §1
# [3] = biological target: Gal(b1-4)GlcNAc(b1-3)[Gal(b1-4)GlcNAc(b1-6)]Gal(b1-4)GlcNAc
# In short: as §1
# [4] = biological target: Gal(b1-4)GlcNAc(b1-3)[Gal(b1-4)GlcNAc(b1-6)]GalNAc
# In short: as §1
# [5] = biological target: Gal(b1-4)GlcNAc(b1-3)[GlcNAc(b1-6)]Gal(b1-4)GlcNAc
# In short: as §1
# [6] = biological target: Gal(b1-4)GlcNAc(b1-6)Gal(b1-4)GlcNAc
# In short: as §1
# [7] = biological target: Gal(b1-4)GlcNAc(b1-6)GalNAc
# In short: as §1
# [8] = biological target: Gal(b1-4)GlcNAc(b1-6)[Gal(b1-3)]GalNAc
# In short: as §1
# [9] = biological target: Gal(b1-4)GlcNAc(b1-6)[Gal(b1-4)GlcNAc(b1-3)]GalNAc
# In short: as §1
# Gal(b1-4)GlcNAc6P = biological target: Gal(b1-4)GlcNAc6P
# In short: as §1
# Gal(b1-6)Gal = biological target: Gal(b1-6)Gal
# In short: as §1
# Gal3S(b1-3)GalNAc = biological target: Gal3S(b1-3)GalNAc
# In short: as §1
# Gal3S(b1-3)GlcNAc = biological target: Gal3S(b1-3)GlcNAc
# In short: as §1
# [10] = biological target: Gal3S(b1-3)[Fuc(a1-4)]GlcNAc
# In short: as §1
# Gal3S(b1-4)Glc = biological target: Gal3S(b1-4)Glc
# In short: as §1
# Gal3S(b1-4)Glc6S = biological target: Gal3S(b1-4)Glc6S
# In short: as §1
# Gal3S(b1-4)GlcNAc = biological target: Gal3S(b1-4)GlcNAc
# In short: as §1
# Gal3S(b1-4)GlcNAc6S = biological target: Gal3S(b1-4)GlcNAc6S
# In short: as §1
# [11] = biological target: Gal3S(b1-4)[Fuc(a1-3)]Glc
# In short: as §1
# [12] = biological target: Gal3S(b1-4)[Fuc(a1-3)]Glc6S
# In short: as §1
# [13] = biological target: Gal3S(b1-4)[Fuc(a1-3)]GlcNAc
# In short: as §1
# [14] = biological target: Gal3S(b1-4)[Fuc(a1-3)]GlcNAc6S
# In short: as §1
# Gal3S4S(b1-4)GlcNAc = biological target: Gal3S4S(b1-4)GlcNAc
# In short: as §1
# Gal3S6S(b1-4)GlcNAc = biological target: Gal3S6S(b1-4)GlcNAc
# In short: as §1
# Gal3S6S(b1-4)GlcNAc6S = biological target: Gal3S6S(b1-4)GlcNAc6S
# In short: as §1
# Gal4S(b1-4)GlcNAc = biological target: Gal4S(b1-4)GlcNAc
# In short: as §1
# Gal4S6S(b1-4)GlcNAc = biological target: Gal4S6S(b1-4)GlcNAc
# In short: as §1
# Gal6P(b1-4)GlcNAc = biological target: Gal6P(b1-4)GlcNAc
# In short: as §1
# Gal6S(b1-3)GlcNAc = biological target: Gal6S(b1-3)GlcNAc
# In short: as §1
# Gal6S(b1-3)GlcNAc6S = biological target: Gal6S(b1-3)GlcNAc6S
# In short: as §1
# Gal6S(b1-4)Glc = biological target: Gal6S(b1-4)Glc
# In short: as §1
# Gal6S(b1-4)Glc6S = biological target: Gal6S(b1-4)Glc6S
# In short: as §1
# Gal6S(b1-4)GlcNAc = biological target: Gal6S(b1-4)GlcNAc
# In short: as §1
# Gal6S(b1-4)GlcNAc6S = biological target: Gal6S(b1-4)GlcNAc6S
# In short: as §1
# GalNAc(a1-3)Gal = biological target: GalNAc(a1-3)Gal
# In short: as §1
# GalNAc(a1-3)GalNAc = biological target: GalNAc(a1-3)GalNAc
# In short: as §1
# [15] = biological target: GalNAc(a1-3)GalNAc(a1-3)Gal(a1-4)Gal(b1-4)GlcNAc
# In short: as §1
binder,measurement,setting,value
"Flo1 (Saccharomyces cerevisiae), P32768 (protein) SGATEACLPAGQRKSGMNINFYQYSLKDSSTYSNAAYMAYGYASKTKLGSVGGQTDISIDYNIPCVSSSGTFPCPQEDSYGNWGCKGMGACSNSQGIAYWSTDLFGFYTTPTNVTLEMTGYFLPPQTGSYTFKFATVDDSAILSVGGATAFNCCAQQQPPITSTNFTIDGIKPWGGSLPPNIEGTVYMYAGYYYPMKVVYSNAVSWGTLPISVTLPDGTTVSDDFEGYVYSFDDDLSQSNCTVPDPSNY",glycan array binding signal (z-score),[1],-0.3
same,glycan array binding signal (z-score),[2],-1.03
same,glycan array binding signal (z-score),[3],-0.428
same,glycan array binding signal (z-score),[4],-0.354
same,glycan array binding signal (z-score),[5],-0.186
same,glycan array binding signal (z-score),[6],-0.551
same,glycan array binding signal (z-score),[7],0.225
same,glycan array binding signal (z-score),[8],-0.758
same,glycan array binding signal (z-score),[9],-0.029
same,glycan array binding signal (z-score),Gal(b1-4)GlcNAc6P,0.128
same,glycan array binding signal (z-score),Gal(b1-6)Gal,-0.618
same,glycan array binding signal (z-score),Gal3S(b1-3)GalNAc,-0.392
same,glycan array binding signal (z-score),Gal3S(b1-3)GlcNAc,-0.339
same,glycan array binding signal (z-score),[10],-0.316
same,glycan array binding signal (z-score),Gal3S(b1-4)Glc,0.086
same,glycan array binding signal (z-score),Gal3S(b1-4)Glc6S,-0.381
same,glycan array binding signal (z-score),Gal3S(b1-4)GlcNAc,-0.726
same,glycan array binding signal (z-score),Gal3S(b1-4)GlcNAc6S,-0.289
same,glycan array binding signal (z-score),[11],0.7
same,glycan array binding signal (z-score),[12],1.48
same,glycan array binding signal (z-score),[13],-0.778
same,glycan array binding signal (z-score),[14],-0.547
same,glycan array binding signal (z-score),Gal3S4S(b1-4)GlcNAc,-0.376
same,glycan array binding signal (z-score),Gal3S6S(b1-4)GlcNAc,-0.469
same,glycan array binding signal (z-score),Gal3S6S(b1-4)GlcNAc6S,-0.345
same,glycan array binding signal (z-score),Gal4S(b1-4)GlcNAc,-0.101
same,glycan array binding signal (z-score),Gal4S6S(b1-4)GlcNAc,-0.674
same,glycan array binding signal (z-score),Gal6P(b1-4)GlcNAc,0.464
same,glycan array binding signal (z-score),Gal6S(b1-3)GlcNAc,-0.48
same,glycan array binding signal (z-score),Gal6S(b1-3)GlcNAc6S,-0.203
same,glycan array binding signal (z-score),Gal6S(b1-4)Glc,-0.183
same,glycan array binding signal (z-score),Gal6S(b1-4)Glc6S,-0.279
same,glycan array binding signal (z-score),Gal6S(b1-4)GlcNAc,-0.111
same,glycan array binding signal (z-score),Gal6S(b1-4)GlcNAc6S,-0.216
same,glycan array binding signal (z-score),GalNAc(a1-3)Gal,-0.605
same,glycan array binding signal (z-score),GalNAc(a1-3)GalNAc,-0.534
same,glycan array binding signal (z-score),[15],-0.87

# Random excerpt: two entries already listed
binder,measurement,setting,value
"Flo1 (Saccharomyces cerevisiae), P32768 (protein) SGATEACLPAGQRKSGMNINFYQYSLKDSSTYSNAAYMAYGYASKTKLGSVGGQTDISIDYNIPCVSSSGTFPCPQEDSYGNWGCKGMGACSNSQGIAYWSTDLFGFYTTPTNVTLEMTGYFLPPQTGSYTFKFATVDDSAILSVGGATAFNCCAQQQPPITSTNFTIDGIKPWGGSLPPNIEGTVYMYAGYYYPMKVVYSNAVSWGTLPISVTLPDGTTVSDDFEGYVYSFDDDLSQSNCTVPDPSNY",glycan array binding signal (z-score),[10],-0.316
same,glycan array binding signal (z-score),Gal3S(b1-3)GalNAc,-0.392
